In test [1] the target is full-length FREM1-FLAG (Fras1-related extracellular matrix protein 1) (mouse) (UniProt Q684R7). Briefly: co-IP; reciprocal: HEK293 cells co-transfected; immunoprecipitation with rabbit anti-FREM1 polyclonal antibody, PDGFC detected in the immunoprecipitates.
Test [2] deals with endogenous FREM1 (mouse (endogenous in E12.5 embryos)) (UniProt Q684R7). Briefly: co-IP; endogenous proteins; rabbit anti-FREM1 or pre-immune serum, 2 mg of total embryo protein lysate (E12.5).
For a further test, the target named is PDGFC-V5 (mouse) (UniProt Q8CI19). Description: co-IP; HEK293 cells co-transfected; pre-cleared lysate supernatants, immunoprecipitation with mouse V5 antibody (PDGFC-V5) overnight, protein A- or G-sepharose, western blot for FLAG or MYC.

Amino acid sequences for entries named in this document (tags omitted). Residues count along the entry.
UniProt Q684R7, residues 30-2191: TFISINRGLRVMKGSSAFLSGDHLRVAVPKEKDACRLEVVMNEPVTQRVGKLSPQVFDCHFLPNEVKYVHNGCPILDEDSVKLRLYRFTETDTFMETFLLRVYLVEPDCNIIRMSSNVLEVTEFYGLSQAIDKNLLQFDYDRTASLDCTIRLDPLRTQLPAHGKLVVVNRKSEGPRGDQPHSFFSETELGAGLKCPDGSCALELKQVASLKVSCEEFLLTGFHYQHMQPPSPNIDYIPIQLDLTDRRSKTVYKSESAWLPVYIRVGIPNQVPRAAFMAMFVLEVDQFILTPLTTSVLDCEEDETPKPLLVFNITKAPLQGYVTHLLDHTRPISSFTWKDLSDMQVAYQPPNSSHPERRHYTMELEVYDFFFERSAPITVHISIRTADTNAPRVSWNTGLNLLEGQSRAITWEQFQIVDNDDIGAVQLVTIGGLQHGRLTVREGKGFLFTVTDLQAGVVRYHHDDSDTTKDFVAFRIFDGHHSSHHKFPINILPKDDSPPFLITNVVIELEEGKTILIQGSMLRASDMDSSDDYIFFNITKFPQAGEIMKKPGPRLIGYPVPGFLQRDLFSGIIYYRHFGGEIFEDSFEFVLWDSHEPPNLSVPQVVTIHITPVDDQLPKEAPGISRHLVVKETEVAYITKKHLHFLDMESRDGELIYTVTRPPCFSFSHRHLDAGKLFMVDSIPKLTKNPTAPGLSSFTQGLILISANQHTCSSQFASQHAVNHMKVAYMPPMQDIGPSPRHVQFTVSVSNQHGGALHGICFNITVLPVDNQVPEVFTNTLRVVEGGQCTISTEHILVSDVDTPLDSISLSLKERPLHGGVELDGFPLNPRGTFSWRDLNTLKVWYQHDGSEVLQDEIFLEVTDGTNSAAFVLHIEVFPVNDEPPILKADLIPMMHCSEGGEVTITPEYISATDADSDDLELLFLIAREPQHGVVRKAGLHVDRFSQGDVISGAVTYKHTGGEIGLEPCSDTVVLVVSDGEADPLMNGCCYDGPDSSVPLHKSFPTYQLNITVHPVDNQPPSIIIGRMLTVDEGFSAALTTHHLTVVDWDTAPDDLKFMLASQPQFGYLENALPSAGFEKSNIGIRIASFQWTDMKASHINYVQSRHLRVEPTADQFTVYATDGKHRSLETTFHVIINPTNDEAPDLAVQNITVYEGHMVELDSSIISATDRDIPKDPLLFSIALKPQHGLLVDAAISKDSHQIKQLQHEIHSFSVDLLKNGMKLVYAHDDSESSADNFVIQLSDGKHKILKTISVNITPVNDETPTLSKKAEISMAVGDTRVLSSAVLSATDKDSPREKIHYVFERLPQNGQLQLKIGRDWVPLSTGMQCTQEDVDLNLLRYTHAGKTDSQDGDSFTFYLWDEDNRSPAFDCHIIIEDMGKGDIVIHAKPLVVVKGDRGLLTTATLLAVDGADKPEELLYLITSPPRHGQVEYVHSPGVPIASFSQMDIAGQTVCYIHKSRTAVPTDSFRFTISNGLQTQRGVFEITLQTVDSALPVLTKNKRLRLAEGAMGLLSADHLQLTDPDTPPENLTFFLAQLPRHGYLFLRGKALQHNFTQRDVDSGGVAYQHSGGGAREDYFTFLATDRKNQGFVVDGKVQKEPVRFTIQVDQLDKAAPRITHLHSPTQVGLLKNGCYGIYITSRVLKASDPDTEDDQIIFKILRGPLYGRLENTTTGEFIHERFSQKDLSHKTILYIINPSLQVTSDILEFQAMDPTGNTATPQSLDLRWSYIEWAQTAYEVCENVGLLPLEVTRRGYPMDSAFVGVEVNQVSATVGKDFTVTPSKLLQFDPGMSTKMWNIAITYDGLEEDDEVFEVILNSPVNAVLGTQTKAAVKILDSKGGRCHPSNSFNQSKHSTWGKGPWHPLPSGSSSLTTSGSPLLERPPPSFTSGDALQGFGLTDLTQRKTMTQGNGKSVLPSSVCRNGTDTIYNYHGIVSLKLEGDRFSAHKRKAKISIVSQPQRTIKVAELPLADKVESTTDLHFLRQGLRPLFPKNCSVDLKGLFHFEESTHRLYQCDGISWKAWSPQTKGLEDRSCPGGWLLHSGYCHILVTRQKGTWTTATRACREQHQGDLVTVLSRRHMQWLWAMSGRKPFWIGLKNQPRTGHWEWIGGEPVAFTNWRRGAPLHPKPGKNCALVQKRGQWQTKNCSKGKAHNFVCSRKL
UniProt Q8CI19, residues 23-345: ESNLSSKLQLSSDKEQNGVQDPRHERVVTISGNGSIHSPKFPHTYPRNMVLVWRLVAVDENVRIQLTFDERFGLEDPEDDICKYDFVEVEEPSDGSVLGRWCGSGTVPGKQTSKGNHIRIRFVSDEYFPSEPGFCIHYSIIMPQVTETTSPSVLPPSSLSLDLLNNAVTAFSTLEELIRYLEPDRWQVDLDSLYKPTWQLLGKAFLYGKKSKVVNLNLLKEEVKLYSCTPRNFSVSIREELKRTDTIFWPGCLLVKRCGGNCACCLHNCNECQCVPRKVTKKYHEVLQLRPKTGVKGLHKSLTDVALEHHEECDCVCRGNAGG

No constants are given. Whether binding was seen depends on the method and setting. Binding seen in cells or lysates may run through a third protein. Some binding calls cover weakened binding; strength is not graded here.

As for “PDGFC-V5 (from UniProt Q8CI19 23-345) (ligand)”, the binding result in test [1] is listed as “binds”.

With “endogenous PDGFC (from UniProt Q8CI19 23-345) (ligand)”, the binding result in test [2] is reported as “binds”.

With “full-length FREM1-FLAG (Fras1-related extracellular matrix protein 1) (from UniProt Q684R7 30-2191)”, the binding result with PDGFC-V5 (mouse) is “binds”.

The record behind these values is paper PMC3820265.
